Article PMC10703789
No constants are given. Whether binding was seen depends on the method and setting. In cells and extracts the contact can be indirect. Binding can be weak; no strength is given.

Tests used:
[1] = target: mouse frataxin (mouse (endogenous in primary cortical neurons)); experiment: proximity ligation; in situ Duolink PLA in fixed mouse primary cortical neurons; anti-FXN with anti-MT-ND1, anti-SDHB or anti-UQCRFS1
[2] = target: human frataxin (human (endogenous in hiPSC-derived CMs and NPCs, SH-SY5Y, LCLs)); experiment: proximity ligation; in situ Duolink PLA in fixed, permeabilised hiPSC-derived neural progenitor cells of a healthy control (fewer dots in FRDA patient's NPCs); anti-FXN with anti-MT-ND1, anti-SDHB or anti-UQCRFS1; signal at distances <40 nm
[3] = target: human frataxin (human (endogenous in hiPSC-derived CMs and NPCs, SH-SY5Y, LCLs)); experiment: proximity ligation; in situ Duolink PLA in fixed retinoic acid-differentiated SH-SY5Y neuroblastoma cells; anti-FXN with anti-MT-ND1, anti-SDHB or anti-UQCRFS1
[4] = target: human frataxin (human (endogenous in hiPSC-derived CMs and NPCs, SH-SY5Y, LCLs)); experiment: proximity ligation; in situ Duolink PLA in fixed, permeabilised hiPSC-derived cardiomyocytes of a healthy control (fewer dots in FRDA patient's CMs); anti-FXN with anti-MT-ND1, anti-SDHB or anti-UQCRFS1; signal at distances <40 nm

Row | Binder | binding [1] | binding [2] | binding [3] | binding [4]
1 | mouse SDHB (CII) (protein, UniProt Q9CQA3 31-282) AQTAAAAAPRIKKFAIYRWDPDKTGDKPRMQTYEVDLNKCGPMVLDALIKIKNEVDSTLTFRRSCREGICGSCAMNINGGNTLACTRRIDTDLSKVSKIYPLPHMYVIKDLVPDLSNFYAQYKSIEPYLKKKDESQEGKQQYLQSIEDREKLDGLYECILCACCSTSCPSYWWNGDKYLGPAVLMQAYRWMIDSRDDFTEERLAKLQDPFSVYRCHTIMNCTQTCPKGLNPGKAIAEIKKMMATYKEKRALA | binds |  |  | 
2 | SDHB (complex II) (protein, UniProt P21912 29-280) AQTAAATAPRIKKFAIYRWDPDKAGDKPHMQTYEVDLNKCGPMVLDALIKIKNEVDSTLTFRRSCREGICGSCAMNINGGNTLACTRRIDTNLNKVSKIYPLPHMYVIKDLVPDLSNFYAQYKSIEPYLKKKDESQEGKQQYLQSIEEREKLDGLYECILCACCSTSCPSYWWNGDKYLGPAVLMQAYRWMIDSRDDFTEERLAKLQDPFSLYRCHTIMNCTRTCPKGLNPGKAIAEIKKMMATYKEKKASV |  | binds | binds | binds
